Results published in patent US10788499B2 (University of Washington, priority 2015, dated 2020).

Assay: peptide synthesis
Details: lipidation step

Question: Which step yield does the source give for “N-Ac-Ala-Leu-Leu-Pro-Phe-Gly-Cys-S—COC11H23 (ALLPFGC; N-acetyl, S-palmitoyl cysteine; printed: Ala-Leu-Leu-Pro-Phe-Gly-Cys-)” here?
Answer: 69%
